Test results as given in PubChem BioAssay AID588590 (National Center for Advancing Translational Sciences (NCATS), 2011).
Values joined by “and” are separate entries in the source; they are usually repeats but may differ in a detail not shown here. Equal values may be shown once. About 4,000 (1%) of roughly 390,000 compounds were called active. The shares of active, inactive and inconclusive entries below differ from those in the screen. Calls follow the shape of the dose curve; as a rule, active = well fitted inhibition curve with a large enough effect; inconclusive = small, poorly fitted or top-dose-only effect, or another doubt; inactive = no such curve, though single readings can be large or run the other way. Potencies of inconclusive entries are doubtful fits and often do not repeat.

The chains behind the UniProt entries cited, without tags or fusion partners. Where a name states a change or a piece, a line headed by the entry shows the natural chain unless it says otherwise.
UniProt Q9UNA4: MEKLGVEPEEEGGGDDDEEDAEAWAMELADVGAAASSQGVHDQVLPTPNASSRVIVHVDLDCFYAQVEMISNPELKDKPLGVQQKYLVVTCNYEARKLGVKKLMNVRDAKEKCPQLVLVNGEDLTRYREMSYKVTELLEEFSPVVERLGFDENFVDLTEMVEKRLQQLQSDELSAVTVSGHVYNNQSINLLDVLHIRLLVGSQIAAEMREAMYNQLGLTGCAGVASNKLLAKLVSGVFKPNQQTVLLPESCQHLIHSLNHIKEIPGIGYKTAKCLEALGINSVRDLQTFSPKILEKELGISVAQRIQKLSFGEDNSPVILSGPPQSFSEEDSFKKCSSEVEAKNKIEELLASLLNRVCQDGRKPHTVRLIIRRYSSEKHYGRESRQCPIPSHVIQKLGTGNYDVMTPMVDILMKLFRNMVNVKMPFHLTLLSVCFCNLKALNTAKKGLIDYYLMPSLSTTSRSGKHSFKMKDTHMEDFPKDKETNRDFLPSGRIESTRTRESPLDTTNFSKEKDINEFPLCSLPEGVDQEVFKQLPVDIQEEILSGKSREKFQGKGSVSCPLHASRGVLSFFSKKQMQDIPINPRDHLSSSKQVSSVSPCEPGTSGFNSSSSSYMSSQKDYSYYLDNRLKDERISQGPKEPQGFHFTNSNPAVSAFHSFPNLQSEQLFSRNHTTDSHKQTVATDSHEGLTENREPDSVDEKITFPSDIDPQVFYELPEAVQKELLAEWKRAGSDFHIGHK

What follows are compounds tested against DNA polymerase iota (Homo sapiens) (UniProt Q9UNA4) (assay: qHTS for Inhibitors of Polymerase Iota). Details: Pol iota fluorescent replication assay, 10 min; series mostly up to 115 µM; activity, negative = inhibition: at the top concentration.
Procedure, shortened: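 Pol iota at 10 nM preincubated 15 min with compounds at room temperature; reaction started with fluorescent substrate, 50 nM final. Fluorescence read kinetically at 0 and 10 min; buffer-only wells as negative control.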
Potency is read from the fitted curve at half-maximal effect.

Potency, active:
O=C(CCC1N=C2c3ccccc3N=C(SCC(=O)NCc3ccco3)N2C1=O)NCc1ccco1 (stereo not given) 12.6 µM
O=C(CSc1nc(-c2ccc(F)cc2)nc2c1Cc1ccccc1O2)Nc1ccc(C(=O)O)cc1 1.41 µM
Oc1cccc(/C=N/NC(=S)Nc2cccnc2)c1O 7.94 µM

Potency, inconclusive:
CCC(O)(C(=O)Nc1ccccc1C(F)(F)F)c1ccccc1OC (stereo not given) 12.6 µM [inhibitor, partial curve, poor fit]
CCOc1ccc(S(=O)(=O)N2CCCCC2)cc1NC(=O)CN1CCCC1c1cccs1 (stereo not given) 89.1 µM [inhibitor, partial curve, poor fit]
Cc1ccc2c(C(=O)CNc3nccs3)c(C)[nH]c2c1 89.1 µM [inhibitor, single point]
CC(C)CC(=O)/C=C/n1c(=S)oc2ccccc21 12.6 µM [inhibitor, partial curve, poor fit]
CCOc1cc(/C=C2\SC(=S)N(NS(=O)(=O)c3ccc(C)cc3)C2=O)ccc1O 15.8 µM [inhibitor, full curve, poor fit]
CCOC(=O)C1=C(C)C/C(=N\NC(=O)c2ccccc2O)CC1 56.2 µM [inhibitor, partial curve, poor fit]
O=c1c2ccccc2sc2nc(C3CCCCC3)n(Cc3ccco3)c(=O)c12 28.2 µM [inhibitor, single point]
CC(=O)Nc1ccc(Nc2nnc(-c3ccc(C)c(S(N)(=O)=O)c3)c3ccccc23)cc1 100 µM [inhibitor, partial curve, poor fit] and 25.1 µM [inhibitor, single point]
COc1ccc(C)c(-n2c(N)cc(=O)n(Cc3ccccc3)c2=O)c1 50.1 µM [inhibitor, partial curve, poor fit]
COc1cccc(/C=N/NC(=O)c2c(C)nc3ccc(Br)cn23)c1O 100 µM [inhibitor, single point]
CCN1/C(=C/C=C/c2oc3ccc(-c4ccccc4)cc3[n+]2CC)Oc2ccc(-c3ccccc3)cc21 20 µM [inhibitor, full curve, poor fit]
COC(=O)Nc1sc2c(c1C(=O)N1CCOCC1)CCC(C)C2 (stereo not given) 22.4 µM [inhibitor, single point]
Cc1ccc(OCC(=O)OCc2c(C)noc2C)cc1C 112 µM [inhibitor, single point]
CCC(C)[C@H]1CNCCN1CCCc1cc(OC)c(OC)c(OC)c1 (stereo not given in full) 11.2 µM [inhibitor, partial curve, poor fit]
C#CCN1CC(C)/C(=N/O)CC1C (stereo not given) 2.82 µM [inhibitor, full curve, poor fit]
CCc1cc(C)cc(OCCOc2ccccc2/C=N/NC(C)=O)c1 70.8 µM [inhibitor, single point]
COc1ccccc1NS(=O)(=O)c1ccc(N/N=C/c2ccccc2OCC(=O)O)c([N+](=O)[O-])c1 25.1 µM [inhibitor, full curve, poor fit]
COc1cccc(NC(=O)Cn2c(=O)n(CCC(=O)NCc3ccccc3OC)c(=O)c3ccccc32)c1 89.1 µM [inhibitor, partial curve, poor fit]
O=C(O)C1CCCN1S(=O)(=O)c1ccc(Cl)c(Cl)c1 (stereo not given) 50.1 µM [inhibitor, partial curve, poor fit]
Cc1cc(C)c(S(=O)(=O)c2ccccc2)c(OC(=O)c2ccc(Cl)cc2Cl)n1 8.91 µM [inhibitor, single point]
CCOC(=O)Nc1ccc2c(c1)N(C(=O)CCN1CCN(C)CC1)c1ccccc1S2 3.16 µM [inhibitor, full curve, poor fit]
CCNC(=O)C(=O)Nc1ccc([N+](=O)[O-])cc1 100 µM [inhibitor, single point]
CCOc1ccc(NCCC(=O)c2ccc3c(c2)OCO3)cc1 35.5 µM [inhibitor, partial curve, poor fit]
Cc1ccc(NC(=O)Cn2cc3c(n2)CCCC3)cc1Cl 100 µM [inhibitor, single point]
Cc1ccccc1OCCCC(=O)Nc1ccc(Br)cc1 28.2 µM [inhibitor, partial curve, poor fit]
COC(=O)c1[nH]c2ccc(C)cc2c1NC(=O)CN1CCN(Cc2ccccc2)CC1 39.8 µM [inhibitor, single point]
CCCCN(CC)CCCNC(=O)c1cc2cc3ccc(OC)cc3nc2o1 39.8 µM [inhibitor, single point]
Cc1c(NC(=O)Cc2ccc(Cl)cc2)cccc1-c1nc2cccnc2s1 79.4 µM [inhibitor, single point]
Cc1cccc(S(=O)(=O)Nc2ccc(S(=O)(=O)Nc3nccs3)cc2)c1 50.1 µM [inhibitor, single point]
Cc1ccccc1N=Cc1cccc(O)c1O 7.08 µM [inhibitor, full curve, poor fit]
CC1(C)Cc2ccccc2-c2nnc(SCC(=O)Nc3nc4ccccc4s3)n21 28.2 µM [inhibitor, single point]
C=C1CN(CC(=O)OC)S(=O)(=O)c2ccccc21 39.8 µM [inhibitor, single point]
COc1cccc(NC2=C(C#N)C(=O)NC(c3cccc(OC)c3O)S2)c1 (stereo not given) 39.8 µM [inhibitor, partial curve, poor fit]
CNS(=O)(=O)c1cccc(C(=O)OCC(=O)c2cc(C)n(-c3ccc4c(c3)OCO4)c2C)c1 28.2 µM [inhibitor, partial curve, poor fit]
O=[N+]([O-])c1ccc(C[n+]2ccc(Cc3ccccc3)cc2)cc1 44.7 µM [inhibitor, partial curve, poor fit]
COc1ccc(S(=O)(=O)/N=C2\C=C(NS(=O)(=O)c3ccccc3)C(=O)c3ccccc32)cc1 10 µM [inhibitor, full curve, poor fit]
Cc1ccc(-c2csc3nc(-c4ccncc4)[nH]c(=O)c23)cc1 20 µM [inhibitor, single point]
O=c1ccc(-c2ccc(S(=O)(=O)NCc3cccc(Br)c3)s2)n[nH]1 56.2 µM [inhibitor, partial curve, poor fit]
Nc1nc(Nc2cccc(F)c2)nc2ccccc12 89.1 µM [inhibitor, single point]
COCC(C)n1c(C)cc(C(=O)CSc2nnc(N)s2)c1C (stereo not given) 8.91 µM [inhibitor, partial curve, poor fit]
Cc1cc(N2C(=O)C(O)=C(C(=O)c3cc4ccccc4o3)C2c2cccs2)no1 (stereo not given) 28.2 µM [inhibitor, single point]
O=C1CCC/C=C/C[C@H](CC(=O)N(CCO)Cc2ccccc2)C(=O)N[C@@H](Cc2ccccc2)CO1 79.4 µM [inhibitor, single point]
CC(=C\c1ccccc1)/C=C1/SC(=S)N(CCC(=O)O)C1=O 31.6 µM [inhibitor, single point]
CCN1C(=O)[C@H]2[C@H]3CN=C(SCc4ccc(C(=O)OC)cc4)N3[C@@](CC)(C(=O)OC)[C@H]2C1=O 25.1 µM [inhibitor, partial curve, poor fit]
O=C(Cc1cccs1)Nc1nncs1 28.2 µM [inhibitor, single point]

activity, negative = inhibition, inactive:
CSc1ccc(C2N=C(c3ccccc3)NO2)cc1 (stereo not given) 30.6%
O=C(Nc1ccc(S(=O)(=O)N(Cc2ccccc2)c2ccccc2)cc1)c1ccc([N+](=O)[O-])cc1 5.13%
Cc1ccc(N=Nc2c(O)ccc3n[nH]nc23)cc1 -6.84%
COc1ccccc1NC(=O)CN1CC(=O)Nc2ccccc21 71.1%
COc1ccc2c(c1)CC(C(=O)NCCN1CCN(c3cccc(C)c3C)CC1)CO2 (stereo not given) -15.3%
N#C/C(=C\c1c[nH]c2ccccc12)C(=O)NC1CC1 -29.4%
O=C(O)CCCCCNC(=O)c1ccccc1Br -16.4%
CCCCOC(=O)c1ccc(NC(=O)c2ccc3c(c2)CCN3S(C)(=O)=O)cc1 18.2%
O=C(NCc1cccs1)c1nc(-c2cccs2)no1 -2.32%
CCN1CCCC1CNC(=O)c1ccc2c(c1)NC(=O)/C(=C\c1ccc(C)cc1)S2 (stereo not given) 34.6%
COc1ccc(-c2noc(N3CCC(C(=O)N4CCN(c5cccc(OC)c5)CC4)CC3)n2)cc1 -10.8%
O=C(CSc1ccc2ccccc2c1)NCCc1ccc(O)c(O)c1 40.8%
CN(C(=O)CSc1nc2cc(Cl)ccc2c(=O)n1Cc1ccco1)C1CCS(=O)(=O)C1 (stereo not given) 26.8%
CCc1nnc(NC(=O)C(=O)NCCOC(=O)c2ccccc2Cl)s1 12.3%
CCN(CC)S(=O)(=O)c1ccc(NC(=O)CCC2CCCCC2)cc1 -9.21%
CN(C)/C=C/C(=O)c1ccc(Cl)c([N+](=O)[O-])c1 22.2%
Cc1ccccc1OCC(=O)NCC(=O)OCc1cccc2ccccc12 29.8%

4 compounds picked at random from the list so far:
activity, negative = inhibition, inactive:
N#C/C(=C\c1c[nH]c2ccccc12)C(=O)NC1CC1 -29.4%
CN(C(=O)CSc1nc2cc(Cl)ccc2c(=O)n1Cc1ccco1)C1CCS(=O)(=O)C1 (stereo not given) 26.8%
CCc1nnc(NC(=O)C(=O)NCCOC(=O)c2ccccc2Cl)s1 12.3%
COc1ccc(-c2noc(N3CCC(C(=O)N4CCN(c5cccc(OC)c5)CC4)CC3)n2)cc1 -10.8%
